Data as given in publication PMC5557861.
Results are given in words; binding and its absence hold for the method and conditions named. Tags and fused reporters may be left off the sequences shown.

Molecular target: T1, full-length ScWss1 (Saccharomyces cerevisiae Wss1) (Saccharomyces cerevisiae S288c), P38838
T1 chain: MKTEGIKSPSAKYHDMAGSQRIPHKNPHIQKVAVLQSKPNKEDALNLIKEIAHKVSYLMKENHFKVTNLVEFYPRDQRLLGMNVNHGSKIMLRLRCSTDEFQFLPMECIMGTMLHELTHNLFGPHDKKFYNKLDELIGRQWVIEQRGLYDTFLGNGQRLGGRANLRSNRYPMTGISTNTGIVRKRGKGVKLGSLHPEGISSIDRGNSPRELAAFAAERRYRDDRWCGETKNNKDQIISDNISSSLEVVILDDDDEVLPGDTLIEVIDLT
Experiment: SAXS; full-length ScWss1 in solution at 2, 4 and 6 mg/ml, data extrapolated to zero concentration; molecular mass from SAXS 35 kDa against 31 kDa from the sequence; both purified
Settings: remark: other sources report otherwise

B1: full-length ScWss1 (Saccharomyces cerevisiae Wss1), P38838 1-269 (enzyme)
chain: T1 chain
With B1 the binding was “no binding (tested: 2 mg/ml, 4 mg/ml, and 6 mg/ml)”.
